Experimental findings from article PMC3401230, “The Crystal Structures of Dystrophin and Utrophin Spectrin Repeats: Implications for Domain Boundaries” (PLoS ONE, 2012) are described below.

No constants are given. Whether binding was seen depends on the method and setting.

Assay [1] addresses Utrophin N-terminal spectrin repeat 1 (rat) (UniProt G3V7L1). The assay is described as follows: crystal structure; X-ray; Utr-SR1 P2(1)2(1)2(1), 1.95 Å, two molecules in the asymmetric unit; Dys-SR1 P3(2)21, 2.3 Å, two molecules in the asymmetric unit, crystallised without reducing agent; both purified.
The target is the same in assay [2]. The assay is described as follows: SEC; Superdex 75 HR 30/10; Utr-SR1 in 20 mM Tris pH 8.0, 50 mM NaCl; Dys-SR1 in PBS; no DTT added; both purified. For orientation: In gel filtration, larger molecules generally elute earlier.
The target in assay [3] is Dystrophin N-terminal (repeat 1) spectrin repeat (human) (UniProt P11532). The assay is described as follows: SEC; analytical size exclusion chromatography of Dys-SR1 after reduction with 5 mM DTT; both purified.

B1: Utrophin N-terminal spectrin repeat 1 (domain or fragment, UniProt G3V7L1 308-425)
chain: DMDLDSYQIALEEVLTWLLSAEDTFQEQDDISDDVEDVKEQFATHETFMMELTAHQSSVGSVLQAGNQLMTQGTLSDEEEFEIQEQMTLLNARWEALRVESMERQSRLHDALMELQKK
B1: the binding result in assay [1] and in assay [2] was “no binding” in each case.

B2: Dystrophin N-terminal (repeat 1) spectrin repeat (domain or fragment, human, UniProt P11532 338-456, looked up)
chain: EVNLDRYQTALEEVLSWLLSAEDTLQAQGEISNDVEVVKDQFHTHEGYMMDLTAHQGRVGNILQLGSKLIGTGKLSEDEETEVQEQMNLLNSRWECLRVASMEKQSNLHRVLMDLQNQK
notes: dystrophin, human, residues 338-456 (first spectrin repeat); Without a reducing agent part of the protein is a dimer linked by a disulphide bond between C433 of each molecule; The model in PDB 3UUN holds residues 338-453 (monomer A) and 339-452 (monomer B); Tag and cleavage are told only as 'prepared in an equivalent manner' to Utr-SR1; also called Dys-SR1; source: E. coli BL21(DE3), purified in …
On to B2, for which the binding entry in assay [3] was “no binding (condition: with 5 mM DTT)”.
